From publication PMC9728996

By UniProt entry, the sequences of proteins in these tests, tags left out. Where a name states a change or a piece, a line headed by the entry shows the natural chain unless it says otherwise.
UniProt Q9VDY6: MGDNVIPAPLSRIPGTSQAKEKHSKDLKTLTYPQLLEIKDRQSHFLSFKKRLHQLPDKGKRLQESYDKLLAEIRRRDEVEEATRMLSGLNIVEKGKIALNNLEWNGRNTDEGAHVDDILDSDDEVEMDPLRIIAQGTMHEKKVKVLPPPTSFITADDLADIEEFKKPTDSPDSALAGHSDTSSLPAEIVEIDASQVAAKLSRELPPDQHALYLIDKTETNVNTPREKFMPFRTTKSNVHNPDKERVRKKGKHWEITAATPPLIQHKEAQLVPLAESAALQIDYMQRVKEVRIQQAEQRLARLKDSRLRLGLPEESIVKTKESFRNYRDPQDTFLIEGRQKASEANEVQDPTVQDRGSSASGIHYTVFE

Target: Flag-VN-fGdown1 (wild type Gdown1 of Drosophila melanogaster) (Drosophila melanogaster) (UniProt Q9VDY6)
Experiment: split reporter; BiFC in HeLa cells co-transfected with one Flag-VN (Venus 1-172) and one Flag-YC (YFP 173-238) plasmid, 0.25 ug each per well; fixed 24 hr post transfection, confocal microscopy; in some panels mock or 20 nM LMB for 6 hr

Flag-YC-NELF-E (from UniProt P18615-1 1-380)
binding: binds

These are yes or no findings as the source states them, for the method shown. Binding seen in cells or lysates may run through a third protein. A result given as binding can be weak or reduced; the word gives no strength.
